Experimental data: paper PMC6899524
Results are given in words; binding and its absence hold for the method and conditions named. Some binding calls cover weakened binding; strength is not graded here. Blank lines part the entries; values can stand above or below the molecule they belong to.

Tests used:
[1] = target: apoptotic protease activating factor 1 (APAF1) (human (endogenous in U2OS)) (UniProt O14727); experiment: sucrose gradient sedimentation; extracts of H6 NEDP1 knockout U2OS cells, DMSO or etoposide (50 µM, 15 h), on a 10%-50% sucrose gradient, fractions blotted for APAF1
[2] = target: T1, apoptotic protease activating factor 1 (APAF1) (human (endogenous in U2OS)), O14727; experiment: sucrose gradient sedimentation; extracts of parental U2OS cells exposed to etoposide (50 µM, 15 h) on a 10%-50% sucrose gradient, fractions blotted for APAF1; settings: remark: other sources report otherwise
T1 chain: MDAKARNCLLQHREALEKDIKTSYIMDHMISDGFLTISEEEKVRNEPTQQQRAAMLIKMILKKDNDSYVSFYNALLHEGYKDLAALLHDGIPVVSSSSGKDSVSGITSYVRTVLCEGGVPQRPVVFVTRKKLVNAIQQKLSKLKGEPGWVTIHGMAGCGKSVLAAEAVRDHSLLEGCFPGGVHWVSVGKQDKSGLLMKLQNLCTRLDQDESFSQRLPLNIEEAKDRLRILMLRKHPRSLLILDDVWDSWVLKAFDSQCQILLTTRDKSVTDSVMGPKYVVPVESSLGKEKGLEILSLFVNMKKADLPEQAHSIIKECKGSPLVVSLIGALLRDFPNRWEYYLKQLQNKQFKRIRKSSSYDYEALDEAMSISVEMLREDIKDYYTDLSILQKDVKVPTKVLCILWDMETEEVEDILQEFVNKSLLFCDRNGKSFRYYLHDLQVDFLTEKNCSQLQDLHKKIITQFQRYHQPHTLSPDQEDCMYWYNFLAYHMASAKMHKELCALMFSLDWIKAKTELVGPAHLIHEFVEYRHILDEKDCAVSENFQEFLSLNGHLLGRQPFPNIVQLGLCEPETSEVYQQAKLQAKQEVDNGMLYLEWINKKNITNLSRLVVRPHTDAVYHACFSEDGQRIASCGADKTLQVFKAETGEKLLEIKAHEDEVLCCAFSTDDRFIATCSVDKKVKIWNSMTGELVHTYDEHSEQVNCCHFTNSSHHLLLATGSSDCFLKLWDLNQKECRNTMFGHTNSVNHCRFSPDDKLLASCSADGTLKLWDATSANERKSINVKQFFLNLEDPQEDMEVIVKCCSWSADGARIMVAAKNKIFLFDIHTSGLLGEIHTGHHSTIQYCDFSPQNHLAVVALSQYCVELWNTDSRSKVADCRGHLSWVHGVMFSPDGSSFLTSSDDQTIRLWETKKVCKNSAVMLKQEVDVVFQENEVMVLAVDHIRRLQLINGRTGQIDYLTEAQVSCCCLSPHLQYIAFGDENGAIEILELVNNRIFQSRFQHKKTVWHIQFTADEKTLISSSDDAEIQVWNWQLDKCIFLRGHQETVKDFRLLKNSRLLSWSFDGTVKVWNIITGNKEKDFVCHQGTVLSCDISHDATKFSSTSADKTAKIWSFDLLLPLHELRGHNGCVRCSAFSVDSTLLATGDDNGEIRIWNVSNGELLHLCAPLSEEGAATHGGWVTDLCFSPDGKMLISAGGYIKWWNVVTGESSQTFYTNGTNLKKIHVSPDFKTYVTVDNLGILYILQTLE

Molecule: apoptotic protease activating factor 1 (APAF1) (from UniProt O14727 1-1248)
binding [1]: no binding (condition: in H6 NEDP1 knockout cells)

binding [2]: binds
B1: apoptotic protease activating factor 1 (APAF1), O14727 1-1248 (protein)
chain: T1 chain
